This note sets out measurements from publication PMC7819943, “Rice protein-binding microarrays: a tool to detect cis-acting elements near promoter regions in rice”.

Sequences of proteins named here, by UniProt entry; tags and fusion partners are left off.
UniProt Q0JBA9, entry or part of it: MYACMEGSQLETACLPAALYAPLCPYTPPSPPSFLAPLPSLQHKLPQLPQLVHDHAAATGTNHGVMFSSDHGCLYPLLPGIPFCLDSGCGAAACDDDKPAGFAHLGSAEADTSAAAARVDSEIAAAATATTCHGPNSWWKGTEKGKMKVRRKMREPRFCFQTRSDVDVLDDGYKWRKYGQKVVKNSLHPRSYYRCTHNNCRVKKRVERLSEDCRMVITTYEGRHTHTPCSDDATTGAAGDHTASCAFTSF

This is one part of the list.

In the assay the target is OsWRKY34 (Oryza sativa, UniProt Q0JBA9 1-250). The experiment in a line: protein-binding microarray (RPBM); PBS, 2% BSA, 51.3 ng/ul salmon testes DNA, 50 uM zinc acetate, 200 nM TF, 25 C, 1 h; high values mean tight binding. Particulars: protein: recombinant; tags: N-terminal polyhistidine and DsRed monomer fusion (pET32a); label: CyDye5-dUTP incorporated in the synthesized complementary strand; 3' TTTTT single-stranded linker to array surface; dsDNA, one strand shown. In a few lines: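 Using Ni–NTA, transcription factors fused N-terminally to polyhistidine and DsRed were purified after expression in E. coli BL21-CodonPlus. These were incubated at 200 nM with a blocked, double-stranded custom Agilent array for 1 h at 25 °C in a buffer containing 50 µM zinc acetate, and the array was washed. The binding signal is per-feature fluorescence intensity (arbitrary units) on an Axon 4000B scanner.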
Consider “TTCCTTTCGTGCTATCGCCTATTCGCCTCCGCCGCCCTTCCGGAGTCACCTAGTGCAG”, for which the binding signal is 10900 fluorescence intensity (a.u.).
Regarding “TTTCACGGGTTTGATGGTTTTCACTGGATATTTCCACTGCCGGAGTCACCTAGTGCAG”, the binding signal was 8730 fluorescence intensity (a.u.).
For “GGGTTCATCAAGCTTGACTCTTGACAACTTGTCTCGTACTCGGAGTCACCTAGTGCAG”, the binding signal was 8580 fluorescence intensity (a.u.).
Take “ACCTCCTGTTTGTTTATGGTTTCCCTAAATTTGCAAACGCCGGAGTCACCTAGTGCAG”: the binding signal was 8400 fluorescence intensity (a.u.).
With “CTGGTTGTTTGATGTTCGCTTATTCCCTTCTGAATTAACTCGGAGTCACCTAGTGCAG” the figure was 8770 fluorescence intensity (a.u.); with “GAATTTGTCTTTGCGTTTACAGCCGCTCCTTCAAGACCCACGGAGTCACCTAGTGCAG”, 8130 fluorescence intensity (a.u.); with “TGATTCCTGTGTCAATTAGCACTAGCCACACACATATTTACGGAGTCACCTAGTGCAG”, 8980 fluorescence intensity (a.u.).
Then “CGAGAGATCGTTGCCCTCCGTATCCACTACTACTACACTCCGGAGTCACCTAGTGCAG”, with 8310 fluorescence intensity (a.u.).
With “TAACATGTAACACGAATCTGTACAAGCTCCTTATTCGTCGCGGAGTCACCTAGTGCAG” the figure was 8890 fluorescence intensity (a.u.).
“GAATTTTCACCCGCATCTGCCCTGACCCATCCCACCTCCACGGAGTCACCTAGTGCAG”: the binding signal was 9010 fluorescence intensity (a.u.).
Then “CACCGTCGCGCACCTGTTTGAATCCCACTCGTGGGCCCCACGGAGTCACCTAGTGCAG”, with 8410 fluorescence intensity (a.u.); and “GTGTTGTCGTTGGAGTAGATGATGATTTTACTAGCTAGTTCGGAGTCACCTAGTGCAG”, with 9210 fluorescence intensity (a.u.); and “ACCTGGCTACAAATCTGTAGCCCACTTTCTTCTCTCTCTCCGGAGTCACCTAGTGCAG”, with 8390 fluorescence intensity (a.u.).
With “TGCAGAACACTAGACATCACAGCCCAAGTCTTACCCACCACGGAGTCACCTAGTGCAG” the figure was 8320 fluorescence intensity (a.u.); with “CGCCTCTGTCCGTTCCGCCGTGGTTTGCGCCGCCCGTCCGCGGAGTCACCTAGTGCAG”, 9070 fluorescence intensity (a.u.).
Consider “ACTCCGTTCCGTTTAAACTCAACTAGTAGTACCCTTGTTGCGGAGTCACCTAGTGCAG”, for which the binding signal is 9570 fluorescence intensity (a.u.).
For the sequence “TTTGATTTTGGTCAAAGTCAAACTACTCTAAGTTTGACTACGGAGTCACCTAGTGCAG”, the binding signal is 13400 fluorescence intensity (a.u.).
With “TGTAAGTCTCTTTTGTGTCAAGATATCGCCTCCATGAATACGGAGTCACCTAGTGCAG” the figure was 8170 fluorescence intensity (a.u.); with “GGTGGTGGGGATCAGGAGGGACGCGGCGAGCCGCGAGCTGCGGAGTCACCTAGTGCAG”, 14100 fluorescence intensity (a.u.); with “GTAATTATTAATTCTTTTCGTATCATTTGATTTATTGTTACGGAGTCACCTAGTGCAG”, 8800 fluorescence intensity (a.u.).
Consider “TCTCTTCCCGTCACCTACCTCTCCTTCTGATTTGGGCGCGCGGAGTCACCTAGTGCAG”, for which the binding signal is 9340 fluorescence intensity (a.u.).
Regarding “TGAGTTTTTGTTTGCATTGTTTGACCACTCTTCTTATTCACGGAGTCACCTAGTGCAG”, the binding signal was 10700 fluorescence intensity (a.u.).
For “TTCTTCTTCTTCTTCTTCGGCGGCGGCGGCGGCGGCGATGCGGAGTCACCTAGTGCAG”, the binding signal is 10500 fluorescence intensity (a.u.).
